Measured data: PubChem BioAssay AID652243 (Drosophila RNAi Screening Center, 2013)
In all, the deposit lists about 24,000 reagents; below is an unselected part of those that have a named target and a result. In the full data, 246 (1%) got an active call. 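Plates not normalised; calls are printed but the firefly/Renilla ratio behind them is not deposited; fold cut for lowering reported inconsistently.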 The raw values are shown without normalisation. The numbers tell different reagents against one gene apart. A plus sign joins genes that one reagent is predicted to hit. Not stated in the record: the amount of reagent.

Test: 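Fly regulators of androgen-dependent reporter output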 (primary screen)
Cell system: Drosophila S2R+ cells
Knock-down reagent: long dsRNA against Drosophila genes
Time to read-out: 72 h (48 h, then 24 h hormone)
Challenge: synthetic androgen R1881 at 10 nM for 24 h
Read-out: 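Firefly light from an androgen-responsive reporter and Renilla control light per well, raw and unnormalised, for each of two replicates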
Scale: firefly reporter light: higher = more light from androgen-responsive reporter; Renilla control light: higher = more constitutive control signal (cell number, transfection)
Rule for the call: 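Across duplicate plates, a knock-down whose log firefly/Renilla ratio shifted a set fold down or up from the GFP/LacZ control mean was a hit; the downward cut appears as both 1.5 and 3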
Calls: active = hit: reporter lowered or raised; inactive = no hit

target gene,dsRNA no.,"firefly reporter light, replicate 1","firefly reporter light, replicate 2","Renilla control light, replicate 1","Renilla control light, replicate 2",call
CG10324,1,96138,1.36e5,1.86e6,2.42e6,inactive
CG16753,1,6.13e5,9.47e5,1.48e6,1.72e6,inactive
Alp7 (Alkaline phosphatase 7),1,1.95e5,1.51e5,1.05e6,8.20e5,inactive
Alp7 (Alkaline phosphatase 7),2,4.35e5,3.37e5,7.70e5,5.51e5,inactive
Alp7 (Alkaline phosphatase 7),3,,,,,inactive
CG32206,1,2.87e5,1.95e5,2.75e6,2.29e6,inactive
CG32206,2,1.99e5,1.38e5,2.20e6,1.63e6,inactive
CG32206,3,2.97e5,2.71e5,1.60e6,2.20e6,inactive
CG32206,4,2.28e5,2.49e5,2.46e6,2.36e6,inactive

Taken from above.
Entry for Alp7 (Alkaline phosphatase 7) #2 under “Renilla control light, replicate 1”: 7.70e5
Entry of Alp7 (Alkaline phosphatase 7) #1 in “Renilla control light, replicate 1”: 1.05e6
CG32206 #4, firefly reporter light, replicate 1 → 2.28e5
Entry of CG10324 under “Renilla control light, replicate 1”: 1.86e6

More reagents follow.
target gene,dsRNA no.,"firefly reporter light, replicate 1","firefly reporter light, replicate 2","Renilla control light, replicate 1","Renilla control light, replicate 2",call
CG14570,1,3.42e5,2.70e5,2.60e6,2.50e6,inactive
CG14570,2,5.83e5,6.70e5,7.17e5,7.28e5,inactive
sgg (shaggy),1,5.82e5,6.15e5,7.45e5,6.57e5,inactive
sgg (shaggy),2,8.26e5,6.29e5,7.27e5,5.75e5,inactive
sgg (shaggy),3,1.27e5,1.32e5,3.48e6,3.75e6,active
sgg (shaggy),4,3.29e5,2.71e5,8.89e5,4.21e5,active
sgg (shaggy),5,,,,,inactive
CG33272,1,98053,84029,72599,59552,inactive
meigo (medial glomeruli),1,2.52e5,2.79e5,3.02e6,3.51e6,inactive
meigo (medial glomeruli),2,3.17e5,2.89e5,9.18e5,7.25e5,inactive
CG17440 + Cfp1,1,9.51e5,5.87e5,1.39e6,1.70e6,inactive
His4r (Histone H4 replacement),1,4.49e5,6.80e5,1.25e5,1.52e5,inactive
His4r (Histone H4 replacement),2,5.61e5,3.49e5,4.76e5,6.06e5,inactive
GluRIA (Glutamate receptor IA),1,2.68e5,2.40e5,3.32e6,2.56e6,inactive
CG31465,1,77624,87357,7.43e5,6.54e5,inactive
CG31465,2,3.08e5,2.00e5,6.88e5,6.72e5,inactive
